According to paper doi:10.1101/2025.03.24.644882:
Like-named read-outs stand apart in the source and are kept apart here. No constants are given. Whether binding was seen depends on the method and setting. Binding seen in cells or lysates may run through a third protein. These calls come from enrichment with a bait or labelling near it, and not all partners need be listed. Sequences can lack the tags named with a protein. Blank lines part the entries; values can stand above or below the molecule they belong to.

By UniProt entry, the sequences of proteins in these tests, tags left out. Residues count along the entry.
UniProt Q8N4C8: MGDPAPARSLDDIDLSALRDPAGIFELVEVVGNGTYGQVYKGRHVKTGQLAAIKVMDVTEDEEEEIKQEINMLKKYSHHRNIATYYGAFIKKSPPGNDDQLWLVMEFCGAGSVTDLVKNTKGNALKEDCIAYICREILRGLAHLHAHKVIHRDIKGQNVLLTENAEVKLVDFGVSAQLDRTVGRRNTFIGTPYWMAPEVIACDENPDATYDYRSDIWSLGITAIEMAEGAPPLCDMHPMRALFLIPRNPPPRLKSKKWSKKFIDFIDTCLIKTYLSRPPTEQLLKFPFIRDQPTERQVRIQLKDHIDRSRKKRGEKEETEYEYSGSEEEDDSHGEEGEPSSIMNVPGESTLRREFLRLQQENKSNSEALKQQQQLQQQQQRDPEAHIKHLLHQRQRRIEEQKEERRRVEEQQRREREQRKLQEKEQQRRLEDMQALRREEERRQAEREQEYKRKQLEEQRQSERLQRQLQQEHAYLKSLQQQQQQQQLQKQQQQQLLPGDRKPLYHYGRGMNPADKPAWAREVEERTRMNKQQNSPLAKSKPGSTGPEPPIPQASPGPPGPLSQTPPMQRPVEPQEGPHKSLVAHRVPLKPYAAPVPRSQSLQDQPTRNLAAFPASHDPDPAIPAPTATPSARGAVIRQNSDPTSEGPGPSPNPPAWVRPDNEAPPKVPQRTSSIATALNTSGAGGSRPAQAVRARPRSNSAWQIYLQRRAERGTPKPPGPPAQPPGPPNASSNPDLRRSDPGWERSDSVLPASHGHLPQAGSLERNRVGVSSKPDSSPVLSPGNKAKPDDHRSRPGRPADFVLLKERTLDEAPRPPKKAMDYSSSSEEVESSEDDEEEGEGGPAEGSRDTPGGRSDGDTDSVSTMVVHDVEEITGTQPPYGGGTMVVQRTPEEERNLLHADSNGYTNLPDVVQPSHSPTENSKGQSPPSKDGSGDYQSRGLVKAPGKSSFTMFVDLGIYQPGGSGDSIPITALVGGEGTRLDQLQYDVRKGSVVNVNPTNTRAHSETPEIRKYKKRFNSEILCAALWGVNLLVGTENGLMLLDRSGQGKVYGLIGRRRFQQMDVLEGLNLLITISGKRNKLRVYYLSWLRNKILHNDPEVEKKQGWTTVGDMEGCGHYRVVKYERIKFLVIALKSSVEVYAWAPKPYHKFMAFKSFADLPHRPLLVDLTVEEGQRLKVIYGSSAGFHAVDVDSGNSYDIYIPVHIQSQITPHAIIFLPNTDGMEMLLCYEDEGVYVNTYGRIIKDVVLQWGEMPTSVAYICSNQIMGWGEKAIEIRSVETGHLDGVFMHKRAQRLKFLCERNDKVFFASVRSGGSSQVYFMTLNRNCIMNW
UniProt P49674: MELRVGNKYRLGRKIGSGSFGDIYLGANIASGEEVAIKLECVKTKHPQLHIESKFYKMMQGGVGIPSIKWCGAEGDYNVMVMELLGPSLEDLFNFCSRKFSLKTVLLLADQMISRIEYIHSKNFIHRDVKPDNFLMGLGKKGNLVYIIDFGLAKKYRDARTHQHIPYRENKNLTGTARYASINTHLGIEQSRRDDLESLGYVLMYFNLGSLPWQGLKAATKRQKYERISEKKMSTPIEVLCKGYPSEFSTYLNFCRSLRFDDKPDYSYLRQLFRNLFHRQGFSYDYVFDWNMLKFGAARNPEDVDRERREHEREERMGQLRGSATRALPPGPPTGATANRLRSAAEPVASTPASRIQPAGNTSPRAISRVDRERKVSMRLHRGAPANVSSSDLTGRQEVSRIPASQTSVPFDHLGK
UniProt Q01974, residues 34-943: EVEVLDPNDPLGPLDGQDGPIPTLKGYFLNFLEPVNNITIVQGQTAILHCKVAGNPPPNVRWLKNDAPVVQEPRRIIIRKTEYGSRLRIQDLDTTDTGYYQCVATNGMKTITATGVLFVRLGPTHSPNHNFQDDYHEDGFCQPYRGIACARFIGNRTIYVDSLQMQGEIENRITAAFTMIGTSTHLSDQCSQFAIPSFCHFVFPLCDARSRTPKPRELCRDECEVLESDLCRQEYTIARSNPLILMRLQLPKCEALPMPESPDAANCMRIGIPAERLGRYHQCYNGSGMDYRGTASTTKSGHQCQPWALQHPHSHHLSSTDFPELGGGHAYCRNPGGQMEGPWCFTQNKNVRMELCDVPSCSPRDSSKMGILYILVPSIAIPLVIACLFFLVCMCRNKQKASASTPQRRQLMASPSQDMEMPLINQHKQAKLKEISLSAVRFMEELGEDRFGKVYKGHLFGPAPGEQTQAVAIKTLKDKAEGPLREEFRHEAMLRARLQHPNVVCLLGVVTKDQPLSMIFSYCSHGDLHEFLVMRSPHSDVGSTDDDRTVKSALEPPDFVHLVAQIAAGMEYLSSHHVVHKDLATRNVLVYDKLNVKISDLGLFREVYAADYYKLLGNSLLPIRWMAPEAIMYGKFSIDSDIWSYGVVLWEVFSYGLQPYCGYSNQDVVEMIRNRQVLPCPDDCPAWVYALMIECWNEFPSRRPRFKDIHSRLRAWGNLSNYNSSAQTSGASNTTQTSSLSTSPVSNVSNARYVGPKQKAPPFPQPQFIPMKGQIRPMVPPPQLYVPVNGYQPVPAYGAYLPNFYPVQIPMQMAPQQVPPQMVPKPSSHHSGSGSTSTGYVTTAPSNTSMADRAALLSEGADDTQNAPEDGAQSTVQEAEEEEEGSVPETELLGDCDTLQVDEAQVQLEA
UniProt Q01973, residues 30-937: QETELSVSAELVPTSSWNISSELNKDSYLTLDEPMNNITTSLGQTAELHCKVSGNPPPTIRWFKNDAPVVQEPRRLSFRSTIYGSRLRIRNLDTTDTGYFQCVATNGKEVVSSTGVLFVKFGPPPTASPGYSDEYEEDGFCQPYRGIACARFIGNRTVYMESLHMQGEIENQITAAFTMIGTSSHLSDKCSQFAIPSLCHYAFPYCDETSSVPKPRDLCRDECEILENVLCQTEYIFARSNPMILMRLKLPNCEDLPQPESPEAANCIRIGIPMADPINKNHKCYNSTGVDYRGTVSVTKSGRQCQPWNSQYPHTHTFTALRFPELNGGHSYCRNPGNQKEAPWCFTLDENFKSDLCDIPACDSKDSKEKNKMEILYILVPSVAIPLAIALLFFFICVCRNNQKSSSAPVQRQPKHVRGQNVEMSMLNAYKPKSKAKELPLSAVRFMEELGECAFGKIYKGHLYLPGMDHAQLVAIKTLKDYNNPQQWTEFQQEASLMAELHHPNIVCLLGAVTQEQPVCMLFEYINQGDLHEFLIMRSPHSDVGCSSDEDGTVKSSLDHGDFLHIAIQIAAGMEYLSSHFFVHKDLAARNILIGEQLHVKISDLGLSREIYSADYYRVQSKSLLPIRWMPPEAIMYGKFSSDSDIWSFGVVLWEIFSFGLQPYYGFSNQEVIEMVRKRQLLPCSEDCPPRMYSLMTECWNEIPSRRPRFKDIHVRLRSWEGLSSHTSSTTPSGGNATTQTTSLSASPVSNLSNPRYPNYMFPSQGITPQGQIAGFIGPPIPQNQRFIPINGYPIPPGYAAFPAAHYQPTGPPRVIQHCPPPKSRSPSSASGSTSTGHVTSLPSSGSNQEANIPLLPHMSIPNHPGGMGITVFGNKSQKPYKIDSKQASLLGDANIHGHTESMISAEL
UniProt Q9HCU4, residues 32-2923: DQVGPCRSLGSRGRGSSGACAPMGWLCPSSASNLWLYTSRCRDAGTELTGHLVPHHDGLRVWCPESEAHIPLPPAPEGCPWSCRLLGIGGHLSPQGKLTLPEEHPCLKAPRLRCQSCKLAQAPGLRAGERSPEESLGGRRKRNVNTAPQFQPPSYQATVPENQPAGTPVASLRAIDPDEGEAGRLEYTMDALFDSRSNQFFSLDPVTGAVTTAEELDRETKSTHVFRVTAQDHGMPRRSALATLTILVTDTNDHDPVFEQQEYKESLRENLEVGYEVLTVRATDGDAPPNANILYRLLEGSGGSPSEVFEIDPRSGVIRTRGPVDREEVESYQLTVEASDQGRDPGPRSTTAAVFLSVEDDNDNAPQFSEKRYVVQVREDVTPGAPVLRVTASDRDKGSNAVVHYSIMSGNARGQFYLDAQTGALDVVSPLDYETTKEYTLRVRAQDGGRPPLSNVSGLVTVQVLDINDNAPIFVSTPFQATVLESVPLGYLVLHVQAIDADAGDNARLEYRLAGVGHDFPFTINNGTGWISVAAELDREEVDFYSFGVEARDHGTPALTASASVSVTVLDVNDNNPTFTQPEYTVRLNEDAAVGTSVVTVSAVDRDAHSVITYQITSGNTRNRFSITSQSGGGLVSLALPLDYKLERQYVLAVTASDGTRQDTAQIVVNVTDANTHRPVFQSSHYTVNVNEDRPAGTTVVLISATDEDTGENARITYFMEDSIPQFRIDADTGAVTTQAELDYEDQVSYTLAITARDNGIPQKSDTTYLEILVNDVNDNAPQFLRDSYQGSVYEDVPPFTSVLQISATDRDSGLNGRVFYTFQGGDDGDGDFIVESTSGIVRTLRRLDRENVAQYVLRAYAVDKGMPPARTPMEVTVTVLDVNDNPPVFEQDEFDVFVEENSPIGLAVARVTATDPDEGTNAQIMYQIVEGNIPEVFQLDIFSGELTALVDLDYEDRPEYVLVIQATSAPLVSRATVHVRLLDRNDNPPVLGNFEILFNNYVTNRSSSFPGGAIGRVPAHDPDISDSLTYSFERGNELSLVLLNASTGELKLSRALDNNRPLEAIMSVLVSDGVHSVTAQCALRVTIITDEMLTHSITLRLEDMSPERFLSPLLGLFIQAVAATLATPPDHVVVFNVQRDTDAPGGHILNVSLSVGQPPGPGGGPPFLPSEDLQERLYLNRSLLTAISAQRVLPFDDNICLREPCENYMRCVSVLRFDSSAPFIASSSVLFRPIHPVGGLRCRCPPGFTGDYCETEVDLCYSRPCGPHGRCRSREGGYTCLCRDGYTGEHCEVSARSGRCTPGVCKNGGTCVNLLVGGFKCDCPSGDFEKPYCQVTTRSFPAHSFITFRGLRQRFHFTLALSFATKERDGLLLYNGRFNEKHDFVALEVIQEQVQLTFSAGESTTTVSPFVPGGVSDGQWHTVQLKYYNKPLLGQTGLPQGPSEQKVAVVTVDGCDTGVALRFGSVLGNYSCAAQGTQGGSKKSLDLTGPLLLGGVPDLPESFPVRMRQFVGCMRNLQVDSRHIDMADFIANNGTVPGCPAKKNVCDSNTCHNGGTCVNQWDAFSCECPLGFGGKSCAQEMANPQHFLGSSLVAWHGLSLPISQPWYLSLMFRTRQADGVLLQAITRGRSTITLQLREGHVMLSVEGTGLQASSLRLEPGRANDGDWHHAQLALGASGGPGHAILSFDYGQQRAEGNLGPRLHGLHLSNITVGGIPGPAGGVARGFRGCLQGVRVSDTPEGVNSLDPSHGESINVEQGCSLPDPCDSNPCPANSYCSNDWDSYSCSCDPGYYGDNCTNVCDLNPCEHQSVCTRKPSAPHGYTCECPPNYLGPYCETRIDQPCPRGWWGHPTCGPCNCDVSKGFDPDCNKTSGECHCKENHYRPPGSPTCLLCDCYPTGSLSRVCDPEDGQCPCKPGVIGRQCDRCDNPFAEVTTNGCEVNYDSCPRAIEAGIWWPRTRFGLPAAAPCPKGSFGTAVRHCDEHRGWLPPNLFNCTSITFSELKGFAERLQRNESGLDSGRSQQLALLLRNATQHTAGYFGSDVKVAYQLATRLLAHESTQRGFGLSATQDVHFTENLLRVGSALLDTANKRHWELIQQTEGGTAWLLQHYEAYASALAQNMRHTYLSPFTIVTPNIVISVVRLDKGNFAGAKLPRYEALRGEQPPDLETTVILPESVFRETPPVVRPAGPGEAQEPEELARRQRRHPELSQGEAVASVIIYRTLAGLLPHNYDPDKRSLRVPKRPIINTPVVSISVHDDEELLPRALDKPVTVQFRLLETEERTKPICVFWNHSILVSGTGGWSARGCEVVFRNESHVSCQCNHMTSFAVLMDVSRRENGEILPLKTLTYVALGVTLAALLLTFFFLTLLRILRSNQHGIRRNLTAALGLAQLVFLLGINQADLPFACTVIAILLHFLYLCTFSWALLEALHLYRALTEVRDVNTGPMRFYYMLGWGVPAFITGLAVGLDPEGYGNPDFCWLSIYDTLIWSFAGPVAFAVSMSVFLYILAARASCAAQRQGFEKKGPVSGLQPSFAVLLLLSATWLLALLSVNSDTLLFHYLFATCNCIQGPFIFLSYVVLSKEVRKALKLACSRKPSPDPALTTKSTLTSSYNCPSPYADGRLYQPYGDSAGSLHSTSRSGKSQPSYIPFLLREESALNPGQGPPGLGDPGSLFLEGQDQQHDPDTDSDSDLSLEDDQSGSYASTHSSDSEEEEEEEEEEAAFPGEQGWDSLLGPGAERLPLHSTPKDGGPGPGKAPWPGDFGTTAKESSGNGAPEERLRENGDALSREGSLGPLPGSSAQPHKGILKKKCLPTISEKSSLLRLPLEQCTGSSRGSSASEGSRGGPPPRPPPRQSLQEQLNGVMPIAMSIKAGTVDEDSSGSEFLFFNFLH

Tests used:
Assay in all cases: proximity labelling
[1] = target: T1, PRICKLE1 fused N-terminally with miniTurboID and the V5 tag (human) (UniProt Q96MT3)
T1 sequence: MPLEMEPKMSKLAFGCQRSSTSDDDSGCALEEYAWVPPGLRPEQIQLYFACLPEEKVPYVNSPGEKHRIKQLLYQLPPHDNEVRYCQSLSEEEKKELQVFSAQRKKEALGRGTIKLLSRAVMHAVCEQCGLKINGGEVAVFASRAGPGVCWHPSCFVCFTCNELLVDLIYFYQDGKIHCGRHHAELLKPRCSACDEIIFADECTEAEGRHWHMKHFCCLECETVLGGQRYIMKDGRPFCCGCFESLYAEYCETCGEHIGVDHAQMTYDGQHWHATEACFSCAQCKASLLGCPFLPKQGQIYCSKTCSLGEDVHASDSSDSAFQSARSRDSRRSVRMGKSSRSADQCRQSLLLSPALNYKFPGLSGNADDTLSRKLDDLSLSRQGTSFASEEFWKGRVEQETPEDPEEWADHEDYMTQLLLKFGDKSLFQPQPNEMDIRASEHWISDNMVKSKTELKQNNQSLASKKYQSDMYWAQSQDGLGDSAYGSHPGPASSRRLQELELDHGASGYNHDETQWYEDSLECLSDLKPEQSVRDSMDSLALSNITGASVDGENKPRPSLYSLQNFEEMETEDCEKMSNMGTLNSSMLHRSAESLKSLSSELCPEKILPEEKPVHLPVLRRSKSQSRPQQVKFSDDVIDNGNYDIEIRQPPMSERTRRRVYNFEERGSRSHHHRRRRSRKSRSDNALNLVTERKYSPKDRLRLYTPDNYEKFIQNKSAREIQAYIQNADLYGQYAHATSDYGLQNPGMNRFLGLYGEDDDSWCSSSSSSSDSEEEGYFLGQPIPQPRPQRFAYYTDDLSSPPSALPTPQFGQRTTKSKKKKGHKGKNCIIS

[2] = target: T2, PRICKLE2 fused N-terminally with miniTurboID and the V5 tag (human) (UniProt Q7Z3G6)
T2 sequence: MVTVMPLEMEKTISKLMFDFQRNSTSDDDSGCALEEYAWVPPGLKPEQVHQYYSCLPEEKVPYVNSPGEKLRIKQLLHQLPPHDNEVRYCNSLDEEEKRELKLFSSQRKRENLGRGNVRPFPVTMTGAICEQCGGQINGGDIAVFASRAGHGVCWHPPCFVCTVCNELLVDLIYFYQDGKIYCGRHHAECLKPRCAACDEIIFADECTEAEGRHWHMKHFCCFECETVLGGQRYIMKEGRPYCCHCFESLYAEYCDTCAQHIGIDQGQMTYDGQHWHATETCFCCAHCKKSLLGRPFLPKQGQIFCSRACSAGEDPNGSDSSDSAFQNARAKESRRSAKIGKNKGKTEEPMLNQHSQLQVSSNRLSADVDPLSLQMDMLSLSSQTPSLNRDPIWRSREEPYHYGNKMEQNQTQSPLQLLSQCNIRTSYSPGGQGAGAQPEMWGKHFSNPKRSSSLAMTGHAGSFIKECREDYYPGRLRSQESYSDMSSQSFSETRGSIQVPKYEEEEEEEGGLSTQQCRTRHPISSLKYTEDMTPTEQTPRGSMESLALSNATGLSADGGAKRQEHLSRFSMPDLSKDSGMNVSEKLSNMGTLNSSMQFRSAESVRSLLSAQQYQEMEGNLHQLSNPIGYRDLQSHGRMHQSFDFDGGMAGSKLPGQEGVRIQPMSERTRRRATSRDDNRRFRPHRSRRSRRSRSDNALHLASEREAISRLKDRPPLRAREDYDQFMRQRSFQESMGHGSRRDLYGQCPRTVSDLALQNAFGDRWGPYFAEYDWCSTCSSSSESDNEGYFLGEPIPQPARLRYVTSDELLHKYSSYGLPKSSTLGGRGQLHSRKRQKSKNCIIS

[3] = target: T3, PRICKLE3 fused N-terminally with miniTurboID and the V5 tag (human) (UniProt O43900)
T3 sequence: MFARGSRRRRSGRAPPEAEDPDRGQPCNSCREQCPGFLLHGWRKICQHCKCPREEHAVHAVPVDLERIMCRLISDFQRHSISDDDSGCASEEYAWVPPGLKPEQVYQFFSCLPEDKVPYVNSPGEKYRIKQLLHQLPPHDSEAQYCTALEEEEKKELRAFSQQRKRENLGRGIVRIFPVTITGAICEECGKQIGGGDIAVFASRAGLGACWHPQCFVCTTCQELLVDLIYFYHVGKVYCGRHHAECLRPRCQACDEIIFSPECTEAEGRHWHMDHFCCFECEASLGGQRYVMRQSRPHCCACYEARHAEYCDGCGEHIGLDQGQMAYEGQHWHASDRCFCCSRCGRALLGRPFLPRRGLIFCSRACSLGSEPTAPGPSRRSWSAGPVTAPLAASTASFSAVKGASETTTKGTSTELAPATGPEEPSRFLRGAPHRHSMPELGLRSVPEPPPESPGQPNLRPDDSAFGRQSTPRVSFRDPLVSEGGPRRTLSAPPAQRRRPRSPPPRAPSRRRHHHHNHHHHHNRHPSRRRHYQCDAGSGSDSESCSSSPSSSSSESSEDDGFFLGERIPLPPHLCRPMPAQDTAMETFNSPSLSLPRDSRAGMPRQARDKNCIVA

[4] = target: T3, PRICKLE3 fused N-terminally with miniTurboID and the V5 tag (human); remark: listed apart in the source

binding [1]: binds
binding [2]: binds
binding [3]: binds
Molecule: Misshapen-like kinase 1, endogenous (from UniProt Q8N4C8 1-1332) (enzyme)

binding [3]: binds
Molecule: Cadherin EGF LAG Seven-Pass G-Type Receptor 1 (CELSR1), endogenous (from UniProt Q9NYQ6 21-3014)

binding [1]: binds
binding [2]: binds
binding [3]: binds
Molecule: Casein kinase 1 ε (CK1ε), endogenous (from UniProt P49674 1-416) (enzyme)

binding [3]: binds
Molecule: Receptor tyrosine Kinase-like Orphan Receptor 2 (ROR2), endogenous (from UniProt Q01974 34-943)

binding [3]: binds
Molecule: Receptor tyrosine Kinase-like Orphan Receptor 1 (ROR1), endogenous (from UniProt Q01973 30-937)

binding [3]: binds
Molecule: Cadherin EGF LAG Seven-Pass G-Type Receptor 2 (CELSR2), endogenous (from UniProt Q9HCU4 32-2923)

binding [3]: binds
Molecule: Kinesin-like protein KIF26B, endogenous (from UniProt Q2KJY2 1-2108)

binding [4]: binds
B1: SRCIN1 (SNAP-25-Interacting Protein), endogenous (protein, UniProt Q9C0H9 1-1183)
chain: MGNAPSQDPERSSPPMLSADDAEYPREYRTLGGGGGGGSGGRRFSNVGLVHTSERRHTVIAAQSLEALSGLQKADADRKRDAFMDHLKSKYPQHALALRGQQDRMREQPNYWSFKTRSSRHTQGAQPGLADQAAKLSYASAESLETMSEAELPLGFSRMNRFRQSLPLSRSASQTKLRSPGVLFLQFGEETRRVHITHEVSSLDTLHALIAHMFPQKLTMGMLKSPNTAILIKDEARNVFYELEDVRDIQDRSIIKIYRKEPLYAAFPGSHLTNGDLRREMVYASRESSPTRRLNNLSPAPHLASGSPPPGLPSGLPSGLQSGSPSRSRLSYAGGRPPSYAGSPVHHAAERLGGAPAAQGVSPSPSAILERRDVKPDEDLASKAGGMVLVKGEGLYADPYGLLHEGRLSLAAAAGDPFAYPGAGGLYKRGSVRSLSTYSAAALQSDLEDSLYKAAGGGGPLYGDGYGFRLPPSSPQKLADVAAPPGGPPPPHSPYSGPPSRGSPVRQSFRKDSGSSSVFAESPGGKTRSAGSASTAGAPPSELFPGPGERSLVGFGPPVPAKDTETRERMEAMEKQIASLTGLVQSALLRGSEPETPSEKIEGSNGAATPSAPCGSGGRSSGATPVSGPPPPSASSTPAGQPTAVSRLQMQLHLRGLQNSASDLRGQLQQLRKLQLQNQESVRALLKRTEAELSMRVSEAARRQEDPLQRQRTLVEEERLRYLNDEELITQQLNDLEKSVEKIQRDVSHNHRLVPGPELEEKALVLKQLGETLTELKAHFPGLQSKMRVVLRVEVEAVKFLKEEPQRLDGLLKRCRGVTDTLAQIRRQVDEGVWPPPNNLLSQSPKKVTAETDFNKSVDFEMPPPSPPLNLHELSGPAEGASLTPKGGNPTKGLDTPGKRSVDKAVSVEAAERDWEEKRAALTQYSAKDINRLLEETQAELLKAIPDLDCASKAHPGPAPTPDHKPPKAPHGQKAAPRTEPSGRRGSDELTVPRYRTEKPSKSPPPPPPRRSFPSSHGLTTTRTGEVVVTSKKDSAFIKKAESEELEVQKPQVKLRRAVSEVARPASTPPIMASAIKDEDDEDRIIAELESGGGSVPPMKVVTPGASRLKAAQGQAGSPDKSKHGKQRAEYMRIQAQQQATKPSKEMSGSNETSSPVSEKPSASRTSIPVLTSFGARNSSISF

binding [4]: binds
B2: VANGL1 (Van Gogh-like 1), endogenous (protein, UniProt Q8TAA9 1-524)
chain: MDTESTYSGYSYYSSHSKKSHRQGERTRERHKSPRNKDGRGSEKSVTIQPPTGEPLLGNDSTRTEEVQDDNWGETTTAITGTSEHSISQEDIARISKDMEDSVGLDCKRYLGLTVASFLGLLVFLTPIAFILLPPILWRDELEPCGTICEGLFISMAFKLLILLIGTWALFFRKRRADMPRVFVFRALLLVLIFLFVVSYWLFYGVRILDSRDRNYQGIVQYAVSLVDALLFIHYLAIVLLELRQLQPMFTLQVVRSTDGESRFYSLGHLSIQRAALVVLENYYKDFTIYNPNLLTASKFRAAKHMAGLKVYNVDGPSNNATGQSRAMIAAAARRRDSSHNELYYEEAEHERRVKKRKARLVVAVEEAFIHIQRLQAEEQQKAPGEVMDPREAAQAIFPSMARALQKYLRITRQQNYHSMESILQHLAFCITNGMTPKAFLERYLSAGPTLQYDKDRWLSTQWRLVSDEAVTNGLRDGIVFVLKCLDFSLVVNVKKIPFIILSEEFIDPKSHKFVLRLQSETSV

binding [4]: binds
B3: Frizzled 3 (FZD3), endogenous (receptor, UniProt Q9NPG1 23-666)
chain: HSLFSCEPITLRMCQDLPYNTTFMPNLLNHYDQQTAALAMEPFHPMVNLDCSRDFRPFLCALYAPICMEYGRVTLPCRRLCQRAYSECSKLMEMFGVPWPEDMECSRFPDCDEPYPRLVDLNLAGEPTEGAPVAVQRDYGFWCPRELKIDPDLGYSFLHVRDCSPPCPNMYFRREELSFARYFIGLISIICLSATLFTFLTFLIDVTRFRYPERPIIFYAVCYMMVSLIFFIGFLLEDRVACNASIPAQYKASTVTQGSHNKACTMLFMILYFFTMAGSVWWVILTITWFLAAVPKWGSEAIEKKALLFHASAWGIPGTLTIILLAMNKIEGDNISGVCFVGLYDVDALRYFVLAPLCLYVVVGVSLLLAGIISLNRVRIEIPLEKENQDKLVKFMIRIGVFSILYLVPLLVVIGCYFYEQAYRGIWETTWIQERCREYHIPCPYQVTQMSRPDLILFLMKYLMALIVGIPSVFWVGSKKTCFEWASFFHGRRKKEIVNESRQVLQEPDFAQSLLRDPNTPIIRKSRGTSTQGTSTHASSTQLAMVDDQRSKAGSIHSKVSSYHGSLHRSRDGRYTPCSYRGMEERLPHGSMSRLTDHSRHSSSHRLNEQSRHSSIRDLSNNPMTHITHGTSMNRVIEEDGTSA
